# Patent US9765332
# By UniProt entry, the sequences of proteins in these tests, tags left out. Residues count along the entry.
# UniProt P0A6X3, 2-102: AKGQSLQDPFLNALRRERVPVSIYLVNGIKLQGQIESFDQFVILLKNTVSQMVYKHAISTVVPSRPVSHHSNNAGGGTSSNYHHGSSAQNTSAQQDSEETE
# Legend:
# Hfq (Escherichia coli) [1] = biological target: Hfq (Escherichia coli) (UniProt P0A6X3); test: EMSA; settings: ternary RydC-Hfq-csgD mRNA215 complex; Hfq 1:1 with RydC; nearly all RydC in complex at 1:1 mRNA; purified recombinant protein; label: 5'-32P on RydC
# Hfq (Escherichia coli) [2] = biological target: Hfq (Escherichia coli) (UniProt P0A6X3); test: footprint; settings: Hfq binds RydC and alters reactivity at two connecting loops and H1; purified recombinant protein; label: 5'-32P
Sequence,binding result (Hfq (Escherichia coli) [1]),binding result (Hfq (Escherichia coli) [2])
CUUCCGAUGUAGACCCGUAUUCUUCGCCUGUACCACGGGUCGGUUUUAGUACAGGCGUUUUCUU / GAUGUAAUCCAUUAGUUUUAUAUUUUACCCAUUUAGGGCUGAUUUAUUACUACACACAGCAGUGCAACAUCUGUCAGUACUUCUGGUGCUUCUAUUUUAGAGGCAGCUGUCAGGUGUGCGAUCAAUAAAAAAAGCGGGGUUUCAUCAUGUUUAAUGAAGUCCAUAGUAUUCAUGGUCAUACAUUAUUGUUGAUCACUAAAUCUUCUUUGCAGGCG [RydC + csgD mRNA215],binds,–
CUUCCGAUGUAGACCCGUAUUCUUCGCCUGUACCACGGGUCGGUUUUAGUACAGGCGUUUUCUU [RydC],–,binds

# Construct, isoform or probe ends are uncertain for at least one entry.
